According to publication PMC11499603:
These are yes or no findings as the source states them, for the method shown. Binding seen in cells or lysates may run through a third protein. Some results given as binding are weak or reduced against the parent protein; the word gives no strength.

Target: EGFR (human (endogenous in H520)) (UniProt P00533)
Test: co-IP; Protein A/G magnetic beads IP kit, lysates of H520 stable cell lines (H520^VASH2, H520^VASH2-mut) after 20 ng/mL EGF stimulation; rabbit IgG as negative control; western blotting

B1: kinesin family member 3C (protein, UniProt O14782 1-793)
chain: MASKTKASEALKVVARCRPLSRKEEAAGHEQILTMDVKLGQVTLRNPRAAPGELPKTFTFDAVYDASSKQADLYDETVRPLIDSVLQGFNGTVFAYGQTGTGKTYTMQGTWVEPELRGVIPNAFEHIFTHISRSQNQQYLVRASYLEIYQEEIRDLLSKEPGKRLELKENPETGVYIKDLSSFVTKNVKEIEHVMNLGNQTRAVGSTHMNEVSSRSHAIFIITVECSERGSDGQDHIRVGKLNLVDLAGSERQNKAGPNTAGGAATPSSGGGGGGGGSGGGAGGERPKEASKINLSLSALGNVIAALAGNRSTHIPYRDSKLTRLLQDSLGGNAKTIMVATLGPASHSYDESLSTLRFANRAKNIKNKPRVNEDPKDTLLREFQEEIARLKAQLEKRGMLGKRPRRKSSRRKKAVSAPPGYPEGPVIEAWVAEEEDDNNNNHRPPQPILESALEKNMENYLQEQKERLEEEKAAIQDDRSLVSEEKQKLLEEKEKMLEDLRREQQATELLAAKYKAMESKLLIGGRNIMDHTNEQQKMLELKRQEIAEQKRREREMQQEMMLRDEETMELRGTYTSLQQEVEVKTKKLKKLYAKLQAVKAEIQDQHDEYIRVRQDLEEAQNEQTRELKLKYLIIENFIPPEEKNKIMNRLFLDCEEEQWKFQPLVPAGVSSSQMKKRPTSAVGYKRPISQYARVAMAMGSHPRYRAENIMFLELDVSPPAVFEMEFSHDQEQDPRALHMERLMRLDSFLERPSTSKVRKSRSWCQSPQRPPPSTTHASLASASLRPATVADHE
B1 was tested, and the binding was “binds”.
